# Measured values from patent US10369187B2, “Peptide regulators of JNK family kinases” (Vanderbilt University, priority 2017, dated 2019).
# At least one peptide structure holds a part that was inferred or is arguable (an end, a ring closure or a residue). Where a SMILES comes first, the peptide text is derived from it. [ ]: non-standard residue; d: D form.
# System: JNK activity in HEK293 cells with endogenous arrestins deleted by CRISPR
# Test: JNK activity in HEK293 cells lacking arrestins treated with cell-penetrating peptides (phospho-JNK, phospho-c-Jun blots)
# Type: cell-based
# Details: 24 h
Structure (SMILES),effect on phospho-JNK and phospho-c-Jun at different concentrations,effect on phospho-JNK and phospho-c-Jun at high concentration (10 μM)
CC[C@H](C)[C@H](NC(=O)[C@@H](N)CCCCN)C(=O)N[C@@H](CCCCN)C(=O)N[C@@H](CCCCN)C(=O)N[C@H](C(=O)N[C@@H](CCCCN)C(=O)N[C@@H](CCCCN)C(=O)N[C@@H](CCCCN)C(=O)NCC(=O)N[C@@H](CCCNC(=N)N)C(=O)N[C@@H](CCCCN)C(=O)NCC(=O)NCC(=O)NCC(=O)N[C@@H](C(=O)N[C@@H](C(=O)N[C@H](CC(C)C)C(=O)N[C@H](CCCCN)C(=O)N[C@H](CS)C(=O)N[C@H](CC(N)=O)C(=O)N1CCC[C@@H]1C(=O)N[C@H](CO)C(=O)N[C@H](CO)C(=O)N[C@H](CCCCN)C(=O)N[C@H](CCCCN)C(=O)N[C@H](Cc1ccccc1)C(=O)N[C@@H](C(=O)N[C@H](CCCNC(=N)N)C(=O)N[C@@H](C(=O)O)[C@H](C)O)C(C)C)[C@H](C)O)C(C)C)C(C)C [cpT1A15] (H-KIKKVKKKGRKGGG[dV][dT][dL][dK][dC][dN][dP][dS][dS][dK][dK][dF][dV][dR][dT]-OH; N-terminus and C-terminus assumed),shows a dose-depend effect particularly evident on p-c-Jun,–
CC[C@H](C)[C@H](NC(=O)[C@@H](N)CCCCN)C(=O)N[C@@H](CCCCN)C(=O)N[C@@H](CCCCN)C(=O)N[C@H](C(=O)N[C@@H](CCCCN)C(=O)N[C@@H](CCCCN)C(=O)N[C@@H](CCCCN)C(=O)NCC(=O)N[C@@H](CCCNC(=N)N)C(=O)N[C@@H](CCCCN)C(=O)NCC(=O)NCC(=O)NCC(=O)NCC(=O)N[C@H](CC(C)C)C(=O)N[C@H](Cc1ccc(O)cc1)C(=O)N[C@@H](C(=O)N[C@@H](C(=O)N[C@H](CC(C)C)C(=O)N[C@H](CCCCN)C(=O)N[C@H](CS)C(=O)N[C@H](CC(N)=O)C(=O)N1CCC[C@@H]1C(=O)N[C@H](CO)C(=O)N[C@H](CO)C(=O)N[C@H](CCCCN)C(=O)N[C@H](CCCCN)C(=O)N[C@H](Cc1ccccc1)C(=O)N[C@@H](C(=O)O)C(C)C)[C@H](C)O)C(C)C)C(C)C [cpT1A16] (H-KIKKVKKKGRKGGGG[dL][dY][dV][dT][dL][dK][dC][dN][dP][dS][dS][dK][dK][dF][dV]-OH),–,showed an inhibitory effect
